# Library screening results

Chains of the proteins cited; added tags and fusions are not shown.
UniProt E9BF75, entry or part of it: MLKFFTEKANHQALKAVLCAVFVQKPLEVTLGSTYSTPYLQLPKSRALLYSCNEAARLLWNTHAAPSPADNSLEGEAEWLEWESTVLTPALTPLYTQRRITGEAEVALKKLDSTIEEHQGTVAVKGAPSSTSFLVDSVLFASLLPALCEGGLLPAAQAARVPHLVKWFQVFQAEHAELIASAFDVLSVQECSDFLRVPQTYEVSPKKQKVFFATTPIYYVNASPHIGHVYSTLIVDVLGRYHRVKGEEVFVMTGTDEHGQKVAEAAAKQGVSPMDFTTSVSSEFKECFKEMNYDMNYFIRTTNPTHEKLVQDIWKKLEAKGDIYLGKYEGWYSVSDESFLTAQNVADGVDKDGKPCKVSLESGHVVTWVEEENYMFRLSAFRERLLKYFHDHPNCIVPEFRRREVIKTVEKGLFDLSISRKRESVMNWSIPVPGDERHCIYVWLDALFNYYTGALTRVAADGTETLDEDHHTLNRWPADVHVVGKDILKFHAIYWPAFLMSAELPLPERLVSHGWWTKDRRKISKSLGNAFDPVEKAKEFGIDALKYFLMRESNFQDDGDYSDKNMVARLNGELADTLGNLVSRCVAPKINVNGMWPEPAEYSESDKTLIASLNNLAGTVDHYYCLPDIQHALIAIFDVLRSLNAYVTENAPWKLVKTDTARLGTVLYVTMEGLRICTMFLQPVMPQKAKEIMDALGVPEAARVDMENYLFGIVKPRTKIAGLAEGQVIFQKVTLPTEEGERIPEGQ

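Methionyl-tRNA synthetase (putative), Leishmania donovani (UniProt E9BF75). Primary screen of methionyl-tRNA synthetase; the read-out is not stated. The test concentration is not given. The values are filed as inhibition. Size under these conditions: about 68,000 compounds, about 24 of them at 50% or above in at least one test.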

All values are in %. How 0% and 100% were set is not recorded. Most values in the screen are low, and negative values occur. Compounds were drawn at random from those tested, without regard to their results.

CC(C)c1nc(CN(CC(N)=O)C(C)C)cs1 gave 26.76%. For CC1=CC(C)(C)N(CN2C(=O)c3ccccc3C2=O)c2ccccc21 the result was -0.7326%. With Cn1c(Nc2ccc(F)cc2)c(C#N)c(=O)n(C)c1=O the screen gave 8.541%. Result for Cc1ccc(CN2CCn3c(CNC(=O)c4cccn4C)cnc3C2)s1 was 34.07%. Result for CCOCc1ncn2c1CN(C(=O)Nc1ccccc1CC)CC2 was 2.87%. Result for CCN(Cc1cc(F)ccc1Cl)C1CCS(=O)(=O)C1 (stereo not drawn) was 10.66%. CN1CCN(C[C@@H]2OC[C@H]3CN(CCc4ccccc4)CC[C@H]32)CC1 gave 14.75%. CN(CC(N)=O)C(=O)c1cnc(-c2ccc(Cl)s2)s1 read 25.82%.

For Cc1nc(CN(C)C2CCN(Cc3cccc4cccnc34)C2)no1 (stereo not drawn) the result was 7.508%. Result for Cc1cnc(N2C[C@H]3CCCC(N(C)Cc4ccccn4)[C@H]3C2)nc1 (stereo partly drawn) was 18.49%. CC(C)NC(=O)N1CCC(c2nnc3n2CCNC3)CC1 read 16%. With O=C(c1ccc(F)cc1)N1C[C@@H]2COC[C@]2(COc2cccnc2)C1 the screen gave 6.718%. COc1ncccc1CN1C[C@H]2CCN(C(C)C)C[C@H]2C1 read 7.143%. Result for CN(C)c1ccc(C(CNS(=O)(=O)c2cccs2)N2CCCC2)cc1 (stereo not drawn) was 5.634%. Cc1cc(C)c(CNC(=O)NCC(c2ccccc2)N(C)C)c(=O)[nH]1 (stereo not drawn) gave 13.39%. Result for CCN(Cc1ccco1)C(C)c1nc(C)no1 (stereo not drawn) was 1.083%.

For CC[C@H]1N(CC2CCC2)CCC[C@]12CCC(=O)N2Cc1ccncc1 the result was 15.13%. Cc1ccc(SCC2CNc3nc4ccccc4c(=O)n32)c(C)c1 (stereo not drawn) read 11.11%. CN1CCCc2cc(CNC(=O)c3ccc(NC4CC4)nc3)ccc21 gave 13.89%. With O=C(C1CC1)N(CCc1ccccc1)C1CCOC1 (stereo not drawn) the screen gave 9.948%. CS(=O)(=O)c1ccc(Cl)c(C(=O)NCCC2=CCCCC2)c1 gave 3.672%. c1ccc(Cn2cccn2)c(CNCc2cnc(N3CCCC3)nc2)c1 read 16.27%. COCc1noc(C2(c3ccc(OC)cc3)CCOCC2)n1 read 13.41%. Result for CCCN1CCCCC1C(=O)Nc1ccc(-c2nnc[nH]2)cc1 (stereo not drawn) was 12.63%.

For CN(C)C(=O)c1cccc(CCNS(=O)(=O)c2ccccc2)c1 the result was 10.99%. CC(C)N(C)CC(=O)NCc1ccccc1N1CCN(C)CC1 gave 6.137%. Result for COc1ccc2c(c1)CCCN2C(=O)NCCc1cnn(C)c1 was 8.696%. Result for c1cncc(CN2CCOC(c3ncn4c(C5CC5)cccc34)C2)c1 (stereo not drawn) was 21.38%. c1cc2c(cc1Cn1cc(C3CCOC3)nn1)OCO2 (stereo not drawn) gave 10.15%. Result for CN1CCC(N(C)C(=O)Nc2ccc(Cl)cc2)CC1 was 3.235%. Cc1nc(C)n(CC2CCCN2Cc2cscn2)n1 (stereo not drawn) gave 13.19%. With Cc1nc(SCC(=O)Nc2ccc(C(N)=O)cc2)c(C#N)c(C)c1C the screen gave 5.077%.

Result for COC(=O)NCCCn1ccnc1-c1ccccc1 was 16.53%. CC(O)CCN(C)C(=O)Nc1cc(F)cc(Br)c1 (stereo not drawn) read 14.56%. CNC(=O)N1CCc2nc(C(=O)Nc3cccnc3)sc2CC1 gave 14.6%. COCCN1CCC2(CC1)CC(NC(=O)COC)c1ccccc1O2 (stereo not drawn) read 13.45%. With CC(C)c1nc(C2CCCN2CCNS(C)(=O)=O)no1 (stereo not drawn) the screen gave 9.907%. With CCCc1ccc(S(=O)(=O)NCCNC(=O)c2ccoc2)cc1 the screen gave 12.24%. With Cc1cc(C(=O)NCCC(C)C)ccc1NS(C)(=O)=O the screen gave 4.124%. CC(C)CNC(=O)C(C)N1CCN(C2CCN(C(C)C)CC2)CC1 (stereo not drawn) gave 15.57%.

Result for Cc1nsc(N2CCN(Cc3cccc(F)c3)CC2)n1 was 10.18%. CCN1CCCC1CN(Cc1ccon1)CC1CCN(CCOC)CC1 (stereo not drawn) read 5.498%. With CS(=O)(=O)c1ccc(C(=O)NCc2nc3cc(F)ccc3[nH]2)cc1 the screen gave 18.32%. With COCC(C)NC(=O)NCCc1cccc(OC)c1O (stereo not drawn) the screen gave 9.948%. For CCc1nnc2n1CCN(Cc1csc(-c3ncccn3)n1)C2 the result was 13.11%. CCOCCNC(=O)c1cccnc1N1CCCC1c1ccccn1 (stereo not drawn) gave 7.5%. With O=C(O)c1cc(/C=C/c2ccccc2)ncn1 the screen gave 13.79%. For CCc1cc(NCCNc2ccncc2C)n2nc(C)c(C)c2n1 the result was 4.7%.

Some entries from above, unchanged:

{"smiles": "CC(O)CCN(C)C(=O)Nc1cc(F)cc(Br)c1", "stereo": "stereo not drawn", "inhibition": 14.56}
{"smiles": "CN1CCN(C[C@@H]2OC[C@H]3CN(CCc4ccccc4)CC[C@H]32)CC1", "inhibition": 14.75}
{"smiles": "COCc1noc(C2(c3ccc(OC)cc3)CCOCC2)n1", "inhibition": 13.41}
{"smiles": "CN(C)C(=O)c1cccc(CCNS(=O)(=O)c2ccccc2)c1", "inhibition": 10.99}
{"smiles": "c1ccc(Cn2cccn2)c(CNCc2cnc(N3CCCC3)nc2)c1", "inhibition": 16.27}
{"smiles": "Cn1c(Nc2ccc(F)cc2)c(C#N)c(=O)n(C)c1=O", "inhibition": 8.541}

Measurements from “University of Dundee, Small-Polar-MMV Screening Library” (2021), ChEMBL document CHEMBL3988442.